The text below walks through data of article PMC7283360.

Data set [1] deals with HUαE34KαE34K (Escherichia coli) (UniProt P0ACF0). The data set can be described thus: SAXS. To be noted: filament structures, no alternative coupling; Crystals by hanging drop at 20 °C: HUαα in 10 mM Bis-Tris pH 4.5/150 mM NaCl or pH 5.5/100 mM NaCl; E34K in 10 mM Bis-Tris pH 6.5/50 mM NaCl; recombinant protein; protein details: N-terminal His6 (pET15b, TEV site), removed by TEV.

The target of data set [2] is HUαα (HU alpha homodimer) (Escherichia coli) (UniProt P0ACF0). Description: SAXS. As to conditions: DNA bundling, dependent on pH and salt; Crystals by hanging drop at 20 °C: HUαα in 10 mM Bis-Tris pH 4.5/150 mM NaCl or pH 5.5/100 mM NaCl; E34K in 10 mM Bis-Tris pH 6.5/50 mM NaCl; recombinant protein; protein details: N-terminal His6 (pET15b, TEV site), removed by TEV.

Construct, isoform or probe ends are uncertain for at least one entry. For some assays here: At least one verdict rests on a figure or table, not on a statement of the authors.

Consider “AATGAGGTAACAACGAAAGCAGATGATAGCTGCTTATCAATTTGTTGCAAACAAGTAGCCGCGCCCAATGAGGTAACAAT (double strand) [80 bp DNA]”, for which the binding result in data set [1] and in data set [2] was “binds” each time.
